Laboratory results from PMC9527583.
No constants are given. Whether binding was seen depends on the method and setting. In cells and extracts the contact can be indirect. Some results given as binding are weak or reduced against the parent protein; the word gives no strength.

T1: TRAF4-Omni (tumor necrosis factor receptor-associated factor 4, whole length) (human) (UniProt Q9BUZ4)
T1 sequence: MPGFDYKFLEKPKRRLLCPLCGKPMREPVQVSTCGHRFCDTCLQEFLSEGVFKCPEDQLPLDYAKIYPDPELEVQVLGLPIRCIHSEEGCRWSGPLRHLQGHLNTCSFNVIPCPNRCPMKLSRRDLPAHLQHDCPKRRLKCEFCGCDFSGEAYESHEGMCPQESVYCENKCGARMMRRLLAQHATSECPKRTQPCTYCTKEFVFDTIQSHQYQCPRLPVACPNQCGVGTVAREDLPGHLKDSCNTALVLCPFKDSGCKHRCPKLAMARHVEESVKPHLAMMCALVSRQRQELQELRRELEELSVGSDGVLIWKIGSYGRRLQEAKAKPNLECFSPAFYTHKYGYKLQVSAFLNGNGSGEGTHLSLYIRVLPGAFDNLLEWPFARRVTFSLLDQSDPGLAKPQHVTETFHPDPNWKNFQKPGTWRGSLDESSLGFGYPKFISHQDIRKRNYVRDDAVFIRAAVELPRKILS

B1: MEKK2-M2 (protein, UniProt Q9Y2U5 1-619)
chain: MDDQQALNSIMQDLAVLHKASRPALSLQETRKAKSSSPKKQNDVRVKFEHRGEKRILQFPRPVKLEDLRSKAKIAFGQSMDLHYTNNELVIPLTTQDDLDKAVELLDRSIHMKSLKILLVINGSTQATNLEPLPSLEDLDNTVFGAERKKRLSIIGPTSRDRSSPPPGYIPDELHQVARNGSFTSINSEGEFIPESMDQMLDPLSLSSPENSGSGSCPSLDSPLDGESYPKSRMPRAQSYPDNHQEFSDYDNPIFEKFGKGGTYPRRYHVSYHHQEYNDGRKTFPRARRTQGTSLRSPVSFSPTDHSLSTSSGSSIFTPEYDDSRIRRRGSDIDNPTLTVMDISPPSRSPRAPTNWRLGKLLGQGAFGRVYLCYDVDTGRELAVKQVQFDPDSPETSKEVNALECEIQLLKNLLHERIVQYYGCLRDPQEKTLSIFMEYMPGGSIKDQLKAYGALTENVTRKYTRQILEGVHYLHSNMIVHRDIKGANILRDSTGNVKLGDFGASKRLQTICLSGTGMKSVTGTPYWMSPEVISGEGYGRKADIWSVACTVVEMLTEKPPWAEFEAMAAIFKIATQPTNPKLPPHVSDYTRDFLKRIFVEAKLRPSADELLRHMFVHYH
B2: MEKK3-M2 (mitogen-activated protein kinase kinase kinase 3) (protein, UniProt Q99759 1-626)
chain: MDEQEALNSIMNDLVALQMNRRHRMPGYETMKNKDTGHSNRQSDVRIKFEHNGERRIIAFSRPVKYEDVEHKVTTVFGQPLDLHYMNNELSILLKNQDDLDKAIDILDRSSSMKSLRILLLSQDRNHNSSSPHSGVSRQVRIKASQSAGDINTIYQPPEPRSRHLSVSSQNPGRSSPPPGYVPERQQHIARQGSYTSINSEGEFIPETSEQCMLDPLSSAENSLSGSCQSLDRSADSPSFRKSRMSRAQSFPDNRQEYSDRETQLYDKGVKGGTYPRRYHVSVHHKDYSDGRRTFPRIRRHQGNLFTLVPSSRSLSTNGENMGLAVQYLDPRGRLRSADSENALSVQERNVPTKSPSAPINWRRGKLLGQGAFGRVYLCYDVDTGRELASKQVQFDPDSPETSKEVSALECEIQLLKNLQHERIVQYYGCLRDRAEKTLTIFMEYMPGGSVKDQLKAYGALTESVTRKYTRQILEGMSYLHSNMIVHRDIKGANILRDSAGNVKLGDFGASKRLQTICMSGTGMRSVTGTPYWMSPEVISGEGYGRKADVWSLGCTVVEMLTEKPPWAEYEAMAAIFKIATQPTNPQLPSHISEHGRDFLRRIFVEARQRPSAEELLTHHFAQLMY

Target: T1, TRAF4-Omni (tumor necrosis factor receptor-associated factor 4, whole length) (human)
Assay: co-IP; HEK-293T cells cotransfected with pcDNA-TRAF4-Omni and pcDNA-MEKK3-M2, pcDNA-MEKK2-M2 or control plasmid; lysates immunoprecipitated with anti-Omni antibody, western blot; binding buffer 25 mM Tris-HCl pH 8.0, 150 mM NaCl, 1 mM EDTA, 0.5% Nonidet P-40

Row | Binder | binding
1 | B1 | no binding
2 | B2 | binds
